This note sets out measurements from US20230233707A1.

Results are given in words; binding and its absence hold for the method and conditions named. Some entries that bind do so weakly or less than the wild type.

B1: i52.6 (designed binder)
chain: MSDEEERNELIKRIREAAQRAREAAERTGDPRVRELARELARLAQRAFYLVLHDPSSSDVNEALKLIVEAIEAAVRALEAAERTGDPKVREEARELVRRAVEAAEEVQRNPSSSEVNEKLKAIVVEIEVKVASLEAKEVTDPDKALKIAKKVIELALEAVKENPSTEALRAVLEAVRLASEVAKRVTDPDKALKIAKLVIELALEAVKEDPSTDALRAVLEAVRLASEVAKRVTDPDKALKIAKLVLELAAEAVKEDPSTDALRAAKEAERLATEVAKRVTDPKKAREIEMLVLKLQMEAILAETEEVKKEIEESKKRPQSESAKNLILIMQLLINQIRLLALQIRMLALQLQEGSLEHHHHHH
B2: d2.3 (designed binder)
chain: MSDEEERNELIKRIREAAQRAREAAERTGDPRVRELARELARIAQIAFYLVLHDPSSSEVNEALKAVVKAIELAVRALEEAEKTGDPEVRELAREVVRLAVEVATATAAGENDTLRKVAERALRLAKEAAKRGDAKAAKQAAKIAKLAAANAGDEDVLKKVELVRLAIELVEIVVENAKRKGDDDKEAAEAALAAFRIVLAAAQLAGIASLEVLELALRLIKEVVENAQREGYDIAVAAIAAAVAFAVVAVAAAAADITSSEVLELAIRLIKEVVENAQREGYVILLAALAAAAAFVVVAAAAKRAGITSSETLKRAIEEIRKRVEEAQREGNDISEAARQAAEEFRKKAEELKGSLEHHHHHH
B3: d2.7 (designed binder)
chain: MSDEEERNELIKRIREAAQRAREAAERTGDPRVRELARELAKLAQIAFYLVLHDPSAKEVNLALELIVKAIELAVRALEEAEKTGDPHARELAREIVRLAVELARAVAEAAEEAKKQGNSELAEQVARAAQVALEVIKAAITAAKQGDRKAFRAALELVLEVIKAIEEAVKQGNPKKVAEVALKAELIRIVVQNAANKGDDADEAVEAARAAFEIVLAAAQLAGIDSEEVLELAARLIKEVVENAQREGYDIAVAAIAAAVAFAVVAVAAAAADITSSEVLELAIRLIKEVVENAVREGYVILLAALAAAAAFVVVAAAAKRAGITSSETLKRAIEEIRKRVEEAQREGNDISEAARQAAEEFRKKAEELKGSLEHHHHHH
B4: d2.4 (designed binder)
chain: MSDEEERNELIKRIREAAQRAREAAERTGDPRVRELARELARIAQIAFYLVLHDPSSSEVNEALKAVVKAIELAVRALEAAEKTGDPRVRELAREVVKAAVDVAEAAQAGLNDKLREVAEKALRLAKEALKEGDSTAAELAAEIARLAAKLAGDEDVLKKVKLVLEAIKLVKIVVENAKRKGDDSKEAAEAAVAAFLIVLAAAKLAGIASEEVLELAARLIKEVVENAQREGYDIAVAAIAAAVAFAVVAVAAAAADITSSEVLELAIRLIKEVVENAQREGYVILLAALAAAAAFVVVAAAAKRAGITSSETLKRAIEEIRKRVEEAQREGNDISEAARQAAEEFRKKAEELKGSLEHHHHHH
B5: i52.3 (designed binder)
chain: MSDEEERNELIKRIREAAQRAREAAERTGDPRVRELARELARLAQRAFYLVLHDPSSSDVNEALKLIVEAIEAAVRALEAAERAGDPELREDAREAVRLAVEAAEEVQRNPSSSTANLLLKAIVALAEALAAAANGDKEKFKKAAESALEIAKRVVEVASKEGDPEAVLEAAKVALRVAELAAKNGDKEVFKKAAESALEVAKRLVEVASKEGDPELVLEAAKVALRVAELAAKNGDKEVFQKAAASAVEVALRLTEVASKEGDSELETEAAKVITRVRELASKQGDAAVAILAETAEVKLEIEESKKRPQSESAKNLILIMQLLINQIRLLVLQIRMLDEQRQEGSLEHHHHHH

The first assay deals with Conatumumab/AMG 655. The assay can be described thus: cage formation verified by SEC at minimum. For orientation: In gel filtration, larger molecules generally elute earlier.
As to B1, the binding entry is “binds”.
For the molecule B2, the binding result was “binds”.
The same measure, in the same setting: the result for B3 reads “binds”.
On the same count and under the same terms, the result for B4 reads “binds”; that for B5, “binds”.

For the next assay, the target named is Conatumumab/AMG 655. The assay can be described thus: SEC and NS-EM of AbC formed with conatumumab.
For B4, the binding result was “binds”.
Turning to B5, the binding entry was “binds”.

The next assay concerns the target Conatumumab/AMG 655. The assay can be described thus: SEC, design mixed with full human IgG1 (AMG-655 according to paragraph 219), overlaid on the single components [panel D].
B2: the binding entry was “binds”.
B3: the binding entry is given as “binds”.
On the same count and under the same terms, the result for B4 reads “binds”.
On to B5, for which the binding result is recorded as “binds”.

The target of the next assay is Conatumumab/AMG 655. Nature of the assay: SEC and NS-EM of AbC formed with intact hIgG1 (FIG. 2d-e).
Consider B2, for which the binding entry is on record as “binds”.
The same measure, in the same setting: the result for B3 reads “binds”; that for B4, “binds”.
As for B5, the binding result was “binds”.
